Test results: PubChem BioAssay AID328 (DTP/NCI, 2004)
The list does not hold the whole screen: it is rich in T/C values a quarter to a half above the control, in often repeated tests (any T/C) and in doses without a T/C. Other doses and runs of a compound stand elsewhere. T/C gives the treated animals as a percentage of the vehicle group. Some doses have a count of surviving animals in place of a T/C: the source files T/C as zero there, which appears to mark a toxic dose or a test without result, not a measured value. Some survivor counts are full or nearly so, which does not show that the dose was tolerated: survival well below the control is almost never listed, so the zero probably covers shortened survival too. Counts of survivors are from the toxicity check (mostly the fifth day) where no day follows; animals may have died later. Schedules are NCI's codes, taken here to give the interval after Q, in days (D) or hours (H), and the number of doses after X. Some entries were tested several times; the values are given in rising order. Where survival is the endpoint, this PubChem deposit counts one and a half times the control or more as active, and values a quarter to a half above the control carry no call in these data; other NCI protocols may use other cut-offs. Some T/C values carry the count of animals alive at the toxicity check (mostly the fifth day); without a count, all were alive then.

System: BDF1 mice, P388 leukemia ip, median survival T/C
Assay: NCI In Vivo Anticancer Drug Screen. Data for tumor model P388 Leukemia (intraperitoneal) in B6D2F1 (BDF1) mice
Details: T/C endpoint: median survival time, higher T/C = longer survival
Outline: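 Compound-treated tumour-bearing mice were compared with vehicle-treated controls. Survival was recorded, and the value is the treated-group measurement divided by the control-group measurement (T/C).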

[1] = dose: 200.0 mg/kg/injection, schedule: Q01DX009 (ip), vehicle: Klucel (hydroxypropylcellulose) (HPC)
[2] = dose: 200.0 mg/kg/injection, schedule: Q01DX009 (ip), vehicle: saline with Tween-80
[3] = dose: 200.0 mg/kg/injection, schedule: Q01DX009 (ip), vehicle: saline
[4] = dose: 400.0 mg/kg/injection, schedule: Q01DX009 (ip), vehicle: saline
[5] = dose: 400.0 mg/kg/injection, schedule: Q01DX009 (ip), vehicle: saline with Tween-80
[6] = dose: 400.0 mg/kg/injection, schedule: Q01DX001 (ip), vehicle: Klucel (hydroxypropylcellulose) (HPC)
[7] = dose: 100.0 mg/kg/injection, schedule: Q01DX009 (ip), vehicle: Klucel (hydroxypropylcellulose) (HPC)
[8] = dose: 400.0 mg/kg/injection, schedule: Q04DX003 (ip), vehicle: Klucel (hydroxypropylcellulose) (HPC)
[9] = dose: 400.0 mg/kg/injection, schedule: Q04DX003 (ip), vehicle: saline with Tween-80
[10] = dose: 100.0 mg/kg/injection, schedule: Q01DX001 (ip), vehicle: Klucel (hydroxypropylcellulose) (HPC)
[11] = dose: 200.0 mg/kg/injection, schedule: Q01DX001 (ip), vehicle: Klucel (hydroxypropylcellulose) (HPC)
[12] = dose: 200.0 mg/kg/injection, schedule: Q04DX003 (ip), vehicle: Klucel (hydroxypropylcellulose) (HPC)
[13] = dose: 100.0 mg/kg/injection, schedule: Q01DX009 (ip), vehicle: saline with Tween-80

CNC(=S)N/N=C(/C)CCc1c(C)nn(C(=S)NC)c1C
survivor count (dose: 83.75 mg/kg/injection, schedule: Q01DX009 (ip), vehicle: Klucel (hydroxypropylcellulose) (HPC)): 6 of 6
survivor count (dose: 167.5 mg/kg/injection, schedule: Q01DX009 (ip), vehicle: Klucel (hydroxypropylcellulose) (HPC)): 0 of 6
survivor count (dose: 335.0 mg/kg/injection, schedule: Q01DX009 (ip), vehicle: Klucel (hydroxypropylcellulose) (HPC)): 0 of 6

NCCSC(c1ccccc1)c1ccccc1
survivor count [1]: 2 of 6

CCCCCCCCCC(O)CCCCC (stereo not drawn)
survivor count [2]: 5 of 6
T/C [3]: 130 % of control
survivor count (dose: 300.0 mg/kg/injection, schedule: Q01DX009 (ip), vehicle: saline with Tween-80): 4 of 6
survivor count [4]: 3 of 6

O=C(Nc1cccc(Cl)c1)C1CCCC1=Nc1cccc(Cl)c1 (stereo not drawn)
survivor count [2]: 6 of 6
survivor count [5]: 6 of 6

O=C1NN(c2ccccc2)C(=O)/C1=C\c1ccccc1O
T/C (dose: 87.5 mg/kg/injection, schedule: Q01DX009 (ip), vehicle: saline with Tween-80): 132 % of control
T/C (dose: 175.0 mg/kg/injection, schedule: Q01DX009 (ip), vehicle: saline with Tween-80): 129 % of control

CC1CCCC2(CN=C(Nc3ccccc3)O2)C1 (stereo not drawn)
survivor count [6]: 2 of 6

CC(C)Sc1nc(N)nc2nc[nH]c12
survivor count [7]: 6 of 6
survivor count [1]: 0 of 6
survivor count [8]: 2 of 6

CCCCC/C(C)=N\Nc1ccccn1
T/C [7]: 140 % of control [5 of 6 alive]
survivor count [1]: 0 of 6

O=P(Oc1cccc2ccccc12)(N1CC1)N1CC1
T/C (dose: 66.0 mg/kg/injection, schedule: Q01DX009 (ip), vehicle: saline with Tween-80): 131 % of control
T/C (dose: 264.0 mg/kg/injection, schedule: Q04DX003 (ip), vehicle: saline with Tween-80): 129 % of control
survivor count [9]: 6 of 6
survivor count (dose: 600.0 mg/kg/injection, schedule: Q04DX003 (ip), vehicle: saline with Tween-80): 1 of 6 and 3 of 6

Cc1ccc(C2NC(=O)c3ccccc3N2)s1 (stereo not drawn)
T/C [7]: 100, 115, 116, 120 % of control
T/C [1]: 127, 134, 140, 161 % of control

CCC1(C(C)Br)OC2=C(CC(C#N)(C#N)C(C#N)(C#N)C2)O1 (stereo not drawn)
survivor count [10]: 1 of 6
survivor count [11]: 3 of 6
survivor count [6]: 3 of 6

COc1ccc(C(C#N)N2CCCCC2)cc1 (stereo not drawn)
survivor count [7]: 6 of 6
survivor count [1]: 4 of 6
survivor count [12]: 6 of 6
survivor count [8]: 3 of 6

Cc1cc(N(C)C)ccc1C=O
survivor count [12]: 6 of 6

C=CCOCCC(=O)OCC=C
survivor count [10]: 6 of 6
survivor count [11]: 6 of 6
survivor count [12]: 5 of 6
survivor count [6]: 5 of 6
survivor count [8]: 5 of 6

NC(=S)N/N=C/c1ccc2c(c1)OCO2
survivor count (dose: 200.0 mg/kg/injection, schedule: Q04DX003 (ip), vehicle: saline with Tween-80): 6 of 6

C[N+](C)(CC(=O)Nc1ccc(Cl)c(Cl)c1)Cc1ccc(Cl)c(Cl)c1
survivor count (dose: 25.0 mg/kg/injection, schedule: Q01DX009 (ip), vehicle: saline with Tween-80): 3 of 6

Cc1cc2cc3c(=O)[nH]c(=O)nc-3n(CC(O)C(O)C(O)COP(=O)(O)O)c2cc1C (stereo not drawn)
survivor count (dose: 166.0 mg/kg/injection, schedule: Q01DX009 (ip), vehicle: saline): 6 of 6
survivor count [3]: 5 of 6
survivor count [4]: 4 of 6

COC(=O)c1cc(=O)nc(NN=C2CCCCC2)s1
survivor count (dose: 200.0 mg/kg/injection, schedule: Q01DX005 (ip), vehicle: saline with Tween-80): 2 of 5

c1ccc([As+](c2ccccc2)(c2ccccc2)c2ccccc2)cc1
T/C (dose: 0.24 mg/kg/injection, schedule: Q04DX003 (ip), vehicle: saline): 125 % of control
T/C (dose: 0.36 mg/kg/injection, schedule: Q01DX009 (ip), vehicle: saline): 131 % of control
T/C (dose: 0.82 mg/kg/injection, schedule: Q01DX009 (ip), vehicle: saline): 133 % of control
survivor count (dose: 0.82 mg/kg/injection, schedule: Q04DX003 (ip), vehicle: saline): 5 of 6
T/C (dose: 1.2 mg/kg/injection, schedule: Q01DX009 (ip), vehicle: saline): 137 % of control
T/C (dose: 1.87 mg/kg/injection, schedule: Q01DX009 (ip), vehicle: saline): 146 % of control
T/C (dose: 3.3 mg/kg/injection, schedule: Q04DX003 (ip), vehicle: saline): 140 and 145 % of control
survivor count (dose: 7.5 mg/kg/injection, schedule: Q01DX009 (ip), vehicle: saline): 5 of 6
T/C (dose: 7.5 mg/kg/injection, schedule: Q04DX003 (ip), vehicle: saline): 140 % of control
survivor count (dose: 11.0 mg/kg/injection, schedule: Q04DX003 (ip), vehicle: saline): 2 of 6
survivor count (dose: 17.0 mg/kg/injection, schedule: Q04DX003 (ip), vehicle: saline): 1 of 6
survivor count (dose: 25.0 mg/kg/injection, schedule: Q04DX003 (ip), vehicle: saline): 0 of 6

CCOC(=O)N1CCN(CCCCCCOc2ccc(C3CCCCC3)cc2)CC1
T/C [13]: 126 % of control
T/C [2]: 127 % of control
survivor count [5]: 1 of 6

CCOC(=O)C(F)C(Br)C(=O)OCC (stereo not drawn)
T/C [13]: 130 % of control
T/C [2]: 134 % of control
survivor count [5]: 2 of 6

O=C(c1ccc(C(=O)N2CC2)cc1)N1CC1
survivor count (dose: 10.0 mg/kg/injection, schedule: Q01DX009 (ip), vehicle: saline with Tween-80): 6 of 6

CCC[CH2][Sn]([CH2]CCC)([O]S(=O)c1ccccc1)[O]S(=O)c1ccccc1 (stereo not drawn)
survivor count (dose: 100.0 mg/kg/injection, schedule: Q01DX001 (ip), vehicle: saline with Tween-80): 0 of 6
survivor count (dose: 200.0 mg/kg/injection, schedule: Q01DX001 (ip), vehicle: saline with Tween-80): 0 of 6
survivor count (dose: 400.0 mg/kg/injection, schedule: Q01DX001 (ip), vehicle: saline with Tween-80): 0 of 6

CC1(C)N=C(N)N=C(N)N1c1cccc(CCCCc2ccc(S(=O)(=O)F)cc2Cl)c1
T/C (dose: 6.25 mg/kg/injection, schedule: Q01DX009 (ip), vehicle: saline sonified): 140 % of control
T/C (dose: 12.5 mg/kg/injection, schedule: Q01DX009 (ip), vehicle: saline sonified): 136 % of control

O=c1[nH]c(=O)n(C2CC(O)C(CO)O2)cc1I (stereo not drawn)
T/C (dose: 160.0 mg/kg/injection, schedule: Q01DX009 (ip), vehicle: saline with Tween-80): 125 and 126 % of control

Cc1ccc(S(=O)(=O)N/N=C/C(O)CO)cc1 (stereo not drawn)
survivor count (dose: 25.0 mg/kg/injection, schedule: Q01DX009 (ip), vehicle: other): 6 of 6

O=C(/C=C/c1ccncc1)c1cccc2ccccc12
survivor count [3]: 4 of 6

ClCC1CNC(c2ccccc2)O1 (stereo not drawn)
survivor count (dose: 50.0 mg/kg/injection, schedule: Q04DX003 (ip), vehicle: saline with Tween-80): 1 of 6

CCN(CC)CCCC(C)NC(=O)c1ccc(N(C)C)nc1 (stereo not drawn)
survivor count (dose: 25.0 mg/kg/injection, schedule: Q01DX009 (ip), vehicle: water): 6 of 6
survivor count (dose: 100.0 mg/kg/injection, schedule: Q01DX009 (ip), vehicle: water): 6 of 6
survivor count (dose: 200.0 mg/kg/injection, schedule: Q01DX009 (ip), vehicle: water): 6 of 6
survivor count (dose: 400.0 mg/kg/injection, schedule: Q01DX009 (ip), vehicle: water): 3 of 6

CCCCCCCCCCC(O)CN1CCN(c2ccc(C)cc2)CC1 (stereo not drawn)
T/C (dose: 400.0 mg/kg/injection, schedule: Q04DX003 (ip), vehicle: saline sonified): 130 % of control
survivor count [9]: 6 of 6

CC1=CP(=O)(O)CC1
survivor count [3]: 1 of 6
